Laboratory results taken from the supplement of paper PMC10849652.
The other results are listed elsewhere or left out.

Chains of the proteins cited; added tags and fusions are not shown. Lines headed by an entry give the natural chain unless they say otherwise; changes in a name come on top.
UniProt Q9BSL1: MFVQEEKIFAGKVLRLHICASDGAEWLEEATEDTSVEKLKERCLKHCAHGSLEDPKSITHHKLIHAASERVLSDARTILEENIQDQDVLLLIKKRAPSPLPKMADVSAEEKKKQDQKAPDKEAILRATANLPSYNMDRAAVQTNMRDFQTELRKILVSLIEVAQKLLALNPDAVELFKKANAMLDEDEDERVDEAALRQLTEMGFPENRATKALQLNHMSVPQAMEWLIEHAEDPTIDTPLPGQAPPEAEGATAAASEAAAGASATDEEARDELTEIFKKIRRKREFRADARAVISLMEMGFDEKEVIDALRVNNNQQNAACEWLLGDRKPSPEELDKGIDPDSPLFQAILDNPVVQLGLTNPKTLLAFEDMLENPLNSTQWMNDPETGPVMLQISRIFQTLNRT
UniProt Q99598: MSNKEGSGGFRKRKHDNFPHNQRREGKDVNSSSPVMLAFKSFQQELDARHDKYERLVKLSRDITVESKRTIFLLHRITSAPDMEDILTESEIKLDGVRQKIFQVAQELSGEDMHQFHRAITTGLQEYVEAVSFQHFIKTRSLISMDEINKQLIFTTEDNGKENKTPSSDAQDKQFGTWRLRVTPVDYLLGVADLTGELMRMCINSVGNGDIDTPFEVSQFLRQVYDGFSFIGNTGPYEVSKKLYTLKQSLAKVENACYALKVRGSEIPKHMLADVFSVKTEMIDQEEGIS
UniProt Q96J42: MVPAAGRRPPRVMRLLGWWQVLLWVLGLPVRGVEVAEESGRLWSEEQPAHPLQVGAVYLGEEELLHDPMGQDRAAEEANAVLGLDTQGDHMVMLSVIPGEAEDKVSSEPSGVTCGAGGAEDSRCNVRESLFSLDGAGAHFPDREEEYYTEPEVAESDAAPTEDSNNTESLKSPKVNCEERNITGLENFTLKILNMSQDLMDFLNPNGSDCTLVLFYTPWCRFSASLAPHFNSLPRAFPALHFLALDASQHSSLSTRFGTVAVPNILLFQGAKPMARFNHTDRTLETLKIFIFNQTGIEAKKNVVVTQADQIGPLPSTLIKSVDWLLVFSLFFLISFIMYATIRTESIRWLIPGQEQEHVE
UniProt O43156, whole entry, looked up: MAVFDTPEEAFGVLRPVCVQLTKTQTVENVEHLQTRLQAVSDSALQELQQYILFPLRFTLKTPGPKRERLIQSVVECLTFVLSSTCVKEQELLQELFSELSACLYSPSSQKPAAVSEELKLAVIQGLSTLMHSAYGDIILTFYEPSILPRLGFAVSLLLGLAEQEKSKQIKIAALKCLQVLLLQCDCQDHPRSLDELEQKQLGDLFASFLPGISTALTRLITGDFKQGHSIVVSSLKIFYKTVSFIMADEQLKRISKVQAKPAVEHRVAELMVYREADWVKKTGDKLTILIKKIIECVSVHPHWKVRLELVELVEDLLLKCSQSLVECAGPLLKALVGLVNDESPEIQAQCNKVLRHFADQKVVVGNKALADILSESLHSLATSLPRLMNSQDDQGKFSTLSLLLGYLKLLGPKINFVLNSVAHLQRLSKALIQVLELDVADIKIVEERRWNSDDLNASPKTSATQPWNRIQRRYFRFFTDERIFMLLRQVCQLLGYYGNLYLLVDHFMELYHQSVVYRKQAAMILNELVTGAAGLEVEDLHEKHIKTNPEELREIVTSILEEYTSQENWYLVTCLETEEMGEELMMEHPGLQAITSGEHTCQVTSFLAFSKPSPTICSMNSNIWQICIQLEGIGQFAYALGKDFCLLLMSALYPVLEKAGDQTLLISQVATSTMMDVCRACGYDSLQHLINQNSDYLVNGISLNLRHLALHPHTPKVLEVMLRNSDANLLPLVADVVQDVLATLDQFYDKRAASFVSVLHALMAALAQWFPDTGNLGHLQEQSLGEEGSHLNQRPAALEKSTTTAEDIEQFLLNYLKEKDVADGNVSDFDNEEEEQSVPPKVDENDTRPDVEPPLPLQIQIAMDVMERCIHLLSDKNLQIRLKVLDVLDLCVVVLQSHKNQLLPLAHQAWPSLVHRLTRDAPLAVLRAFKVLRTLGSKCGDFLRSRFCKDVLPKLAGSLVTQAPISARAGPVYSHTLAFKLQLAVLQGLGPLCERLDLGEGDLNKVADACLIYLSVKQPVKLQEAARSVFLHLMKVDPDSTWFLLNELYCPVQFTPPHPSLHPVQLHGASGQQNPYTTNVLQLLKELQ
UniProt Q712K3: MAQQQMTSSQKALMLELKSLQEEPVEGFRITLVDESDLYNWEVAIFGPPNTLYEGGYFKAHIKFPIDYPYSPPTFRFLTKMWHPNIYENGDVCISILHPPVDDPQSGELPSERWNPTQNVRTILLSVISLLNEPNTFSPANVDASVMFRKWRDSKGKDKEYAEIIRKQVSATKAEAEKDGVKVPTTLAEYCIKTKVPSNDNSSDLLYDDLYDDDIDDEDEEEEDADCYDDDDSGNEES
UniProt Q01081: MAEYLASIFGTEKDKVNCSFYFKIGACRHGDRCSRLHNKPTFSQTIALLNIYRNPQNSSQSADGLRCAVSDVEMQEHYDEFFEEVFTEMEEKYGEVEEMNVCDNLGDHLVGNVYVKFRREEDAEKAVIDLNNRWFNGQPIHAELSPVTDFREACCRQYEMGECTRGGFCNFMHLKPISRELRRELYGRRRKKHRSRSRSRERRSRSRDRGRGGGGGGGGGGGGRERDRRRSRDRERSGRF
UniProt Q9NY65, whole entry, looked up: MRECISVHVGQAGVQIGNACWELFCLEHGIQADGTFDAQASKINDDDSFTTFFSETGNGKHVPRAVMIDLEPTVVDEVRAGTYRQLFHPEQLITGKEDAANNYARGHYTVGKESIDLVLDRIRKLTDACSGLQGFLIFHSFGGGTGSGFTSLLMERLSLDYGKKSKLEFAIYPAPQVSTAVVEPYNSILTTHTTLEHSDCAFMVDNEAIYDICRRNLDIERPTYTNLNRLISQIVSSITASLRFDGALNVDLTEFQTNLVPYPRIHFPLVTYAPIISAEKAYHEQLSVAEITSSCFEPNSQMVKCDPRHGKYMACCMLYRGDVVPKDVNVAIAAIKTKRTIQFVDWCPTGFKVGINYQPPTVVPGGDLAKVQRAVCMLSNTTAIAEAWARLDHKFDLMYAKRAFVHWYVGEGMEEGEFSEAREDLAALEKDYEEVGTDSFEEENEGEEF
UniProt Q9C0C9: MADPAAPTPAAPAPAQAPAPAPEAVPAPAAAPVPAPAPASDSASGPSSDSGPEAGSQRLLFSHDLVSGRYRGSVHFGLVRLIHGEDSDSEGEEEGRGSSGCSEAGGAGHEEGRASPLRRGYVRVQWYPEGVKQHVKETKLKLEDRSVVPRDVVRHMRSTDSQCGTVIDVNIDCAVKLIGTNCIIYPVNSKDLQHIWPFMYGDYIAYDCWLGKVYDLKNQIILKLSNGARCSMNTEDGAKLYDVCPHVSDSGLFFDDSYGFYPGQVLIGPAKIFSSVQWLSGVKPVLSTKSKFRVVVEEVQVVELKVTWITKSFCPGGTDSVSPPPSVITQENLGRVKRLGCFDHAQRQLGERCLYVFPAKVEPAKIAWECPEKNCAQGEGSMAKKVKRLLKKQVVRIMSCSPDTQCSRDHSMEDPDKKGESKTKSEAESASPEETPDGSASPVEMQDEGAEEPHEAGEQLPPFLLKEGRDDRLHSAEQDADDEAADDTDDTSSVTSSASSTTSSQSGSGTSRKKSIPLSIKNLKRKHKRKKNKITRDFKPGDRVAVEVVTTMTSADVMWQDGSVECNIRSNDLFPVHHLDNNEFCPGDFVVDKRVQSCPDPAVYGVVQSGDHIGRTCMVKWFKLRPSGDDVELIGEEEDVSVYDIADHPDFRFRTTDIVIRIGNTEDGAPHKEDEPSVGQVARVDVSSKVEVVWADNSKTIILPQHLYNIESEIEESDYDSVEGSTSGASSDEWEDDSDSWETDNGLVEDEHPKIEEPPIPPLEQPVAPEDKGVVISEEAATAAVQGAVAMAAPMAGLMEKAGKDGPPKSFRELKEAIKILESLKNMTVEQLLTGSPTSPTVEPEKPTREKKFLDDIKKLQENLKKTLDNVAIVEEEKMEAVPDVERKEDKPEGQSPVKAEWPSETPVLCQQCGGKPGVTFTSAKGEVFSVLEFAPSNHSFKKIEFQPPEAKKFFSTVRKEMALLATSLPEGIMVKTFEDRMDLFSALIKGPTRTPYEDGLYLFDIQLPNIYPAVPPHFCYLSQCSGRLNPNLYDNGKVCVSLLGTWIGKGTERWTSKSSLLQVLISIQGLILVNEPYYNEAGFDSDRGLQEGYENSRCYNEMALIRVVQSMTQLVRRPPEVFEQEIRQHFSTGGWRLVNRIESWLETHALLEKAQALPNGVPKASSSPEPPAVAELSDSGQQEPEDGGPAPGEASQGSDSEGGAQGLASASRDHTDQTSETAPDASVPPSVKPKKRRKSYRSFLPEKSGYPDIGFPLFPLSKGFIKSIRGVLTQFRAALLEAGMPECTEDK
UniProt P68371, whole entry, looked up: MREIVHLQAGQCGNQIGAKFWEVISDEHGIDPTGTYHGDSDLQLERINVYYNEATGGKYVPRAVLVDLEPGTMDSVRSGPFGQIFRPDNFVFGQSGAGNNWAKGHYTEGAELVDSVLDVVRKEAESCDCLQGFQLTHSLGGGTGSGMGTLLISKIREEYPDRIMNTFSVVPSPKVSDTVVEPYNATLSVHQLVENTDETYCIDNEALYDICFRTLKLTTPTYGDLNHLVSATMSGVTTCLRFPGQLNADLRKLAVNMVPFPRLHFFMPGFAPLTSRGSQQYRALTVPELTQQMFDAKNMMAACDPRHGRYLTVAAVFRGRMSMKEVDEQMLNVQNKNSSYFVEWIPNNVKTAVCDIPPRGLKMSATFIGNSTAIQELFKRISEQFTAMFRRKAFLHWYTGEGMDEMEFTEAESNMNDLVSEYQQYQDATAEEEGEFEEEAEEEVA
UniProt Q13630: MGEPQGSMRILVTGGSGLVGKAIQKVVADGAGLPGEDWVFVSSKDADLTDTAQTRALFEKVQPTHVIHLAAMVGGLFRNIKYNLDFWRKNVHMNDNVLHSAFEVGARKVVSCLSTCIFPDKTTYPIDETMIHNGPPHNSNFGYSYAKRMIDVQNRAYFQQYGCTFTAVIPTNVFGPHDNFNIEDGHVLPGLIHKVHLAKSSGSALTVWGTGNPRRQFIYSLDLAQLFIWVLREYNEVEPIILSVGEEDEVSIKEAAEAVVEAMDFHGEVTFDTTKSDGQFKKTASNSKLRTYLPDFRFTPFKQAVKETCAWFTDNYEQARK
UniProt Q8NG11: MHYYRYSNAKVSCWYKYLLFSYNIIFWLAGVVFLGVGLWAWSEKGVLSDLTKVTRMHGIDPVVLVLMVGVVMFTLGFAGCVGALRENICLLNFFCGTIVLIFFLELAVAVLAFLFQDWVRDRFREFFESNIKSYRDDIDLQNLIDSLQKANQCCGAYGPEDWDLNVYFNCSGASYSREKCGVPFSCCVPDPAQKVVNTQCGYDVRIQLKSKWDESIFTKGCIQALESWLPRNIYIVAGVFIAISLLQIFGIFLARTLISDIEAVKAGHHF
UniProt P07437, whole entry, looked up: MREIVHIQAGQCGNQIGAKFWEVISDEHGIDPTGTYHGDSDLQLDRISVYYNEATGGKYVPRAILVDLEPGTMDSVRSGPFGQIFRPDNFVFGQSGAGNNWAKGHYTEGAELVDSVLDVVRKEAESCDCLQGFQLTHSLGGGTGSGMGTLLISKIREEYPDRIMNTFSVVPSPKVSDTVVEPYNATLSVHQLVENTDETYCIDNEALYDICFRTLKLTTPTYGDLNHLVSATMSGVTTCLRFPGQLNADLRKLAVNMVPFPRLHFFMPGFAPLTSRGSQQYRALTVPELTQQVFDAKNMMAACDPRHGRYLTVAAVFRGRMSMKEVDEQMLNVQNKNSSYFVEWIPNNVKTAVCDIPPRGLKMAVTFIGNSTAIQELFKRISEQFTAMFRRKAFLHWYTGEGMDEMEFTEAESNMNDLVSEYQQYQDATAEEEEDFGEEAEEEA
UniProt Q12792, whole entry, looked up: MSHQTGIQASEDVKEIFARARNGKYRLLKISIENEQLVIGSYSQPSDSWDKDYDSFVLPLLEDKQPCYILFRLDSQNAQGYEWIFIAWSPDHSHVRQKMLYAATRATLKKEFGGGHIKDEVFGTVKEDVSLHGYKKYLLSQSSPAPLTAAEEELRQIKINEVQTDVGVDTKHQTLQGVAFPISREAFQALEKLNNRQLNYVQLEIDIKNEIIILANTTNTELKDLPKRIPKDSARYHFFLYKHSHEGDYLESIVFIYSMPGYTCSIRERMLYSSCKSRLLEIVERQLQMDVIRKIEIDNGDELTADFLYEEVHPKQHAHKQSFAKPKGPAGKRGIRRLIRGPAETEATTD
UniProt P62256: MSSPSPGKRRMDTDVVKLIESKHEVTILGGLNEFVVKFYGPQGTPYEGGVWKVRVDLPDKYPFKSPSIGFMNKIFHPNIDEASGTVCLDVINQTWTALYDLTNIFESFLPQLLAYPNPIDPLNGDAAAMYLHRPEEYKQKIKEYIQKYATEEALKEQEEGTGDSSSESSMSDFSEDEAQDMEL

How the values were obtained:
Assay in all cases: log2 fold change, soluble protein after heating vs DMSO (PISA); higher = thermal stabilisation; K562 cells, 10 uM, 30 min; active = over 0.2 and 3.5 SD of the protein, either way, in both replicates (recomputed)
[1] = compound: NC(=O)Nc1cc(-c2cccc(F)c2)sc1C(=O)N[C@H]1CCCNC1
Method in brief: (§1)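 Aliquots of K562 cells (2×10^6 cells/mL) treated with 10 μM compound for 30 min were heated for 3 min over 48°C-58°C. After pooling and extraction in PBS with 0.5% NP-40 at 4°C, soluble protein from a 21,000xg, 90 min spin was quantified by TMTpro 16plex LC-MS/MS with channel sums equalised. Thermal stability is expressed against control samples, from duplicates, as a log2 fold change.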

[2] = compound: NC(=O)c1cnc(N[C@@H]2CCCC[C@@H]2N)nc1Nc1cccc(-n2nccn2)c1
Method in brief: as §1

[3] = compound: NC1(c2ccc(-c3nc4ccn5c(=O)[nH]nc5c4cc3-c3ccccc3)cc2)CCC1
Method in brief: as §1

[4] = compound: NCC(=O)Nc1ccc(-n2nc(C(F)(F)F)cc2-c2ccc3c(ccc4ccccc43)c2)cc1
Method in brief: as §1

[5] = compound: Nc1ccccc1NC(=O)c1ccc(CNC(=O)OCc2cccnc2)cc1 [entinostat]
Method in brief: as §1

[6] = compound: O=C(CCCCCCC(=O)Nc1ccccc1)NO [vorinostat]
Method in brief: as §1

[7] = compound: O=C(CCCCCCNC(=O)c1cnc(N(c2ccccc2)c2ccccc2Cl)nc1)NO [citarinostat]
Method in brief: as §1

[8] = compound: O=C(O)c1ccc2c(c1)nc(Nc1cccc(Cl)c1)c1ccncc12 [silmitasertib]
Method in brief: as §1

[9] = compound: O=C1NC(=O)C(c2cnc3ccccn23)=C1c1cn2c3c(cc(F)cc13)CN(C(=O)N1CCCCC1)CC2
Method in brief: as §1

[10] = compound: c1cc(OCCN2CCCCC2)cc(-c2n[nH]c3ccc(-c4nnc[nH]4)cc23)c1
Method in brief: as §1

Measured: log2 fold change

UBAC1 (UniProt Q9BSL1)
inactive: [1] 0.026 | [2] -0.101 | [3] -0.105 | [4] -0.009 | [5] 0.017 | [6] 0.048 | [7] 0.055 | [8] 0.004 | [9] -0.006 | [10] -0.05

TSNAX (UniProt Q99598)
inactive: [1] -0.007 | [2] 0.015 | [3] 0.017 | [4] 0.02 | [5] -0.035 | [6] -0.002 | [7] 0.005 | [8] -0.001 | [9] -0.052 | [10] -0.008

TXNDC15 (UniProt Q96J42)
inactive: [1] 0 | [2] 0.065 | [3] -0.179 | [4] -0.096 | [5] 0.032 | [6] 0.042 | [7] 0.014 | [8] 0.072 | [9] -0.005 | [10] 0.006

TTI1 (UniProt O43156)
inactive: [1] -0.079 | [2] -0.093 | [3] -0.181 | [4] -0.022 | [5] 0 | [6] 0.142 | [7] 0.028 | [8] 0.062 | [9] 0.057 | [10] -0.099

UBE2R2 (UniProt Q712K3)
inactive: [1] -0.023 | [2] -0.122 | [3] -0.058 | [4] -0.044 | [5] 0.055 | [6] -0.027 | [7] 0.059 | [8] 0.035 | [9] -0.05 | [10] -0.06

U2AF1 isoform 2 (UniProt Q01081)
inactive: [1] -0.174 | [2] -0.017 | [3] 0.058 | [4] -0.096 | [5] -0.013 | [6] -0.021 | [7] 0.039 | [8] -0.034 | [9] -0.039 | [10] -0.093

TUBA8 (UniProt Q9NY65)
inactive: [1] 0.08 | [2] -0.068 | [3] 0.109 | [4] 0.149 | [5] -0.111 | [6] 0.018 | [7] -0.017 | [8] 0.123 | [9] 0.405 | [10] -0.261

UBE2O (UniProt Q9C0C9)
inactive: [1] 0.028 | [2] -0.07 | [3] -0.05 | [4] -0.007 | [5] -0.012 | [6] 0.024 | [7] 0.084 | [8] -0.014 | [9] -0.029 | [10] 0.036

TUBB4B (UniProt P68371)
inactive: [1] 0.041 | [2] 0.041 | [3] -0.035 | [4] 0.039 | [5] -0.026 | [6] 0.012 | [7] 0.021 | [8] -0.039 | [9] 0.017 | [10] -0.015

TSTA3 (UniProt Q13630)
inactive: [1] 0.027 | [2] 0.022 | [3] 0.014 | [4] 0.005 | [5] -0.031 | [6] -0.043 | [7] -0.014 | [8] 0.008 | [9] -0.057 | [10] -0.021

TSPAN14 (UniProt Q8NG11)
inactive: [1] 0.046 | [2] 0.082 | [3] 0.028 | [4] -0.056 | [5] 0.008 | [6] -0.103 | [7] 0.038 | [8] -0.011 | [9] 0.007 | [10] -0.078

TUBB (UniProt P07437)
inactive: [1] 0.023 | [2] -0.031 | [3] -0.035 | [4] 0.003 | [5] -0.019 | [6] 0.032 | [7] 0.005 | [8] -0.058 | [9] -0.026 | [10] -0.052

TWF1 (UniProt Q12792)
inactive: [1] -0.053 | [2] 0.014 | [3] -0.063 | [4] -0.163 | [5] -0.017 | [6] -0.017 | [7] 0.015 | [8] -0.011 | [9] -0.038 | [10] -0.011

2 entries picked at random from the list so far, as already listed:
UBE2R2 (UniProt Q712K3)
inactive: [1] -0.023 | [2] -0.122 | [3] -0.058 | [4] -0.044 | [5] 0.055 | [6] -0.027 | [7] 0.059 | [8] 0.035 | [9] -0.05 | [10] -0.06

TTI1 (UniProt O43156)
inactive: [1] -0.079 | [2] -0.093 | [3] -0.181 | [4] -0.022 | [5] 0 | [6] 0.142 | [7] 0.028 | [8] 0.062 | [9] 0.057 | [10] -0.099

Next part:

UBE2H (UniProt P62256)
inactive: [1] 0 | [2] -0.048 | [3] -0.054 | [4] -0.05 | [5] 0.029 | [6] 0 | [7] 0.1 | [8] 0.044 | [9] -0.123 | [10] 0.02
